These are yes or no findings as the source states them, for the method shown. Some entries that bind do so weakly or less than the wild type.
Target: human Toll-like Receptor (TLR)-2 (human) (UniProt O60603)
Experiment: summary of the experimental results; the underlying test is the HEK-293 TLR cell line assay of section 1.4

Chains of the proteins cited; added tags and fusions are not shown.
UniProt O60603: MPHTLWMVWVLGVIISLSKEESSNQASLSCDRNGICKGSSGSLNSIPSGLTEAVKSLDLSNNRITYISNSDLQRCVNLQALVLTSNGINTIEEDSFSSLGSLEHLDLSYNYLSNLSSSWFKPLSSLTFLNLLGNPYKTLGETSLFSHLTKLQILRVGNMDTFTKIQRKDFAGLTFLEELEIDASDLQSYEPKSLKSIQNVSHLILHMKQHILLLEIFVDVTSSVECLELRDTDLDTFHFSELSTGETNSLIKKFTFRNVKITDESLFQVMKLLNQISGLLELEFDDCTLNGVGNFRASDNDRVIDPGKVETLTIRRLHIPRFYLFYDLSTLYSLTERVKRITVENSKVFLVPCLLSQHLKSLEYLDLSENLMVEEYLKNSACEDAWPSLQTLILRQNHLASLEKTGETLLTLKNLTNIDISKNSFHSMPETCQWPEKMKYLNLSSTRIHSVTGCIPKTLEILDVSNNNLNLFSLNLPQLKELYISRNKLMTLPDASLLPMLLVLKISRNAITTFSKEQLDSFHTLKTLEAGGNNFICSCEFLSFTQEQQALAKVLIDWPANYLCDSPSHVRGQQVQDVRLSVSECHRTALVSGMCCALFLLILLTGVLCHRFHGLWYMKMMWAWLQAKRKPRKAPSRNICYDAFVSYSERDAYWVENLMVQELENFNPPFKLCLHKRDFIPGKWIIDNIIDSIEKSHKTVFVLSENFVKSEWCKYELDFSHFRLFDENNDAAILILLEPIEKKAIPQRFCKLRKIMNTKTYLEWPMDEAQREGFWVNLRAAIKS
UniProt P43313: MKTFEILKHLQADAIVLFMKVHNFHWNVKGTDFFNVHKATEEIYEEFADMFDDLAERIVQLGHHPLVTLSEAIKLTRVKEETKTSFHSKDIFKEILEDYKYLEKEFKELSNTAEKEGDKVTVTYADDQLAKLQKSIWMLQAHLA

Question: Which binding does the source give for “Neutrophil Activating Protein of Helicobacter pylori (HP-NAP) (from UniProt P43313 1-144)” here?
Answer: binds

From patent EP1767214B1
